In paper PMC4764768:
These are yes or no findings as the source states them, for the method shown. Binding seen in cells or lysates may run through a third protein. A yes stands for co-enrichment or nearness to the bait. Other partners may have been found. Tags and fused reporters may be left off the sequences shown.

Sequences of proteins named here, by UniProt entry; tags and fusion partners are left off.
UniProt Q5K651: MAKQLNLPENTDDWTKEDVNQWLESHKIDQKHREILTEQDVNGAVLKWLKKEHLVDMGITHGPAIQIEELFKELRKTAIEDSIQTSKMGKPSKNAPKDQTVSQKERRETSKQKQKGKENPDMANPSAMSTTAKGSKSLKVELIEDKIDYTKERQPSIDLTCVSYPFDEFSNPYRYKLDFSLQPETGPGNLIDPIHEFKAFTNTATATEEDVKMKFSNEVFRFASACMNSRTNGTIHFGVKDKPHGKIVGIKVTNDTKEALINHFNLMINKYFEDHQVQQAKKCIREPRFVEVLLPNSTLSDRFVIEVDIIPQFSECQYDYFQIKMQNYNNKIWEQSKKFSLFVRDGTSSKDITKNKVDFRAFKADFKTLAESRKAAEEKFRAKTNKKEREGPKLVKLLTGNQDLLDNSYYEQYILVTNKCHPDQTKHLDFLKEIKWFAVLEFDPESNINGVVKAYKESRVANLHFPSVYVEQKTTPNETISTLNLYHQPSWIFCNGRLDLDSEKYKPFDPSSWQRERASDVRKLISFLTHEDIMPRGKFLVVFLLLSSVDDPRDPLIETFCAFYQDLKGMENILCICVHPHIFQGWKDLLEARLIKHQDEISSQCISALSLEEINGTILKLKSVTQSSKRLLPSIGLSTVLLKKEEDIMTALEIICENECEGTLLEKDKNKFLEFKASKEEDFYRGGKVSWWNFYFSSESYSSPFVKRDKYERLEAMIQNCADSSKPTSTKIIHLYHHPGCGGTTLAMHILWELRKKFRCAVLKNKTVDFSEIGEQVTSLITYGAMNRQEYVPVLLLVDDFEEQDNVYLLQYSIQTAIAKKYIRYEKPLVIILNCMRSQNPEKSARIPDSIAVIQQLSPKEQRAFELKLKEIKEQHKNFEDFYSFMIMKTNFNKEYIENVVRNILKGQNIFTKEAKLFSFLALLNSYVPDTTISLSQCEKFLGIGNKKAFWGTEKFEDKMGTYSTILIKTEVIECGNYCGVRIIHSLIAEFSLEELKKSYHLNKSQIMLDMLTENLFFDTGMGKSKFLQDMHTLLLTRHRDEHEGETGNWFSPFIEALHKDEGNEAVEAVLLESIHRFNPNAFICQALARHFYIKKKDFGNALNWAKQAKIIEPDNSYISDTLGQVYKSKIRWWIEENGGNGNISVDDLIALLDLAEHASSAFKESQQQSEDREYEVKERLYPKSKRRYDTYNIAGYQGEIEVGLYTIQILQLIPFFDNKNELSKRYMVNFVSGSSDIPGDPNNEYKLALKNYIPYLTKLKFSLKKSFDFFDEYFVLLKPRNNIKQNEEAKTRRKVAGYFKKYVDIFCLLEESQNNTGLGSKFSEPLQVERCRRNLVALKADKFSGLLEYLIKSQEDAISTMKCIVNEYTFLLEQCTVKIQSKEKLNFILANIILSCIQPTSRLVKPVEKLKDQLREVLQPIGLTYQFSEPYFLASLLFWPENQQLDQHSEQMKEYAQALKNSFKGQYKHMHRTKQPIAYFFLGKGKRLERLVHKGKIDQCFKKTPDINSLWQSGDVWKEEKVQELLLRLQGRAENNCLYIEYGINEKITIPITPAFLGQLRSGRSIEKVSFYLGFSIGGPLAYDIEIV

Target: T1, GST-11E6 (HPV-11 E6 protein fused with GST at the N-terminus) (human papillomavirus type 11) (UniProt P04019)
T1 sequence: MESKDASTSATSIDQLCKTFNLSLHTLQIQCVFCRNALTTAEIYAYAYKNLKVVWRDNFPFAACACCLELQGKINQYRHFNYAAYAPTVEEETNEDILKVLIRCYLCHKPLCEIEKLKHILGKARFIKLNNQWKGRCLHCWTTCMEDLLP
Experiment: affinity purification with mass spectrometry; only the target purified

In the case of “sterile α motif domain containing 9 (SAMD9), endogenous in N/TERT-1 keratinocytes (from UniProt Q5K651 1-1589)”, the binding is reported as “binds”.
